Results are given in words; binding and its absence hold for the method and conditions named. Binding seen in cells or lysates may run through a third protein. These calls come from enrichment with a bait or labelling near it, and not all partners need be listed.
Biological target: WT-NSD1 (UniProt Q96L73)
Assay: affinity purification with mass spectrometry; separate analysis of the interactomes of WT NSD1 and the NUP98 N-terminus as baits; details in Supplementary Fig. 1 and Tables 2 and 3

Amino acid sequences for entries named in this document (tags omitted).
UniProt Q96L73: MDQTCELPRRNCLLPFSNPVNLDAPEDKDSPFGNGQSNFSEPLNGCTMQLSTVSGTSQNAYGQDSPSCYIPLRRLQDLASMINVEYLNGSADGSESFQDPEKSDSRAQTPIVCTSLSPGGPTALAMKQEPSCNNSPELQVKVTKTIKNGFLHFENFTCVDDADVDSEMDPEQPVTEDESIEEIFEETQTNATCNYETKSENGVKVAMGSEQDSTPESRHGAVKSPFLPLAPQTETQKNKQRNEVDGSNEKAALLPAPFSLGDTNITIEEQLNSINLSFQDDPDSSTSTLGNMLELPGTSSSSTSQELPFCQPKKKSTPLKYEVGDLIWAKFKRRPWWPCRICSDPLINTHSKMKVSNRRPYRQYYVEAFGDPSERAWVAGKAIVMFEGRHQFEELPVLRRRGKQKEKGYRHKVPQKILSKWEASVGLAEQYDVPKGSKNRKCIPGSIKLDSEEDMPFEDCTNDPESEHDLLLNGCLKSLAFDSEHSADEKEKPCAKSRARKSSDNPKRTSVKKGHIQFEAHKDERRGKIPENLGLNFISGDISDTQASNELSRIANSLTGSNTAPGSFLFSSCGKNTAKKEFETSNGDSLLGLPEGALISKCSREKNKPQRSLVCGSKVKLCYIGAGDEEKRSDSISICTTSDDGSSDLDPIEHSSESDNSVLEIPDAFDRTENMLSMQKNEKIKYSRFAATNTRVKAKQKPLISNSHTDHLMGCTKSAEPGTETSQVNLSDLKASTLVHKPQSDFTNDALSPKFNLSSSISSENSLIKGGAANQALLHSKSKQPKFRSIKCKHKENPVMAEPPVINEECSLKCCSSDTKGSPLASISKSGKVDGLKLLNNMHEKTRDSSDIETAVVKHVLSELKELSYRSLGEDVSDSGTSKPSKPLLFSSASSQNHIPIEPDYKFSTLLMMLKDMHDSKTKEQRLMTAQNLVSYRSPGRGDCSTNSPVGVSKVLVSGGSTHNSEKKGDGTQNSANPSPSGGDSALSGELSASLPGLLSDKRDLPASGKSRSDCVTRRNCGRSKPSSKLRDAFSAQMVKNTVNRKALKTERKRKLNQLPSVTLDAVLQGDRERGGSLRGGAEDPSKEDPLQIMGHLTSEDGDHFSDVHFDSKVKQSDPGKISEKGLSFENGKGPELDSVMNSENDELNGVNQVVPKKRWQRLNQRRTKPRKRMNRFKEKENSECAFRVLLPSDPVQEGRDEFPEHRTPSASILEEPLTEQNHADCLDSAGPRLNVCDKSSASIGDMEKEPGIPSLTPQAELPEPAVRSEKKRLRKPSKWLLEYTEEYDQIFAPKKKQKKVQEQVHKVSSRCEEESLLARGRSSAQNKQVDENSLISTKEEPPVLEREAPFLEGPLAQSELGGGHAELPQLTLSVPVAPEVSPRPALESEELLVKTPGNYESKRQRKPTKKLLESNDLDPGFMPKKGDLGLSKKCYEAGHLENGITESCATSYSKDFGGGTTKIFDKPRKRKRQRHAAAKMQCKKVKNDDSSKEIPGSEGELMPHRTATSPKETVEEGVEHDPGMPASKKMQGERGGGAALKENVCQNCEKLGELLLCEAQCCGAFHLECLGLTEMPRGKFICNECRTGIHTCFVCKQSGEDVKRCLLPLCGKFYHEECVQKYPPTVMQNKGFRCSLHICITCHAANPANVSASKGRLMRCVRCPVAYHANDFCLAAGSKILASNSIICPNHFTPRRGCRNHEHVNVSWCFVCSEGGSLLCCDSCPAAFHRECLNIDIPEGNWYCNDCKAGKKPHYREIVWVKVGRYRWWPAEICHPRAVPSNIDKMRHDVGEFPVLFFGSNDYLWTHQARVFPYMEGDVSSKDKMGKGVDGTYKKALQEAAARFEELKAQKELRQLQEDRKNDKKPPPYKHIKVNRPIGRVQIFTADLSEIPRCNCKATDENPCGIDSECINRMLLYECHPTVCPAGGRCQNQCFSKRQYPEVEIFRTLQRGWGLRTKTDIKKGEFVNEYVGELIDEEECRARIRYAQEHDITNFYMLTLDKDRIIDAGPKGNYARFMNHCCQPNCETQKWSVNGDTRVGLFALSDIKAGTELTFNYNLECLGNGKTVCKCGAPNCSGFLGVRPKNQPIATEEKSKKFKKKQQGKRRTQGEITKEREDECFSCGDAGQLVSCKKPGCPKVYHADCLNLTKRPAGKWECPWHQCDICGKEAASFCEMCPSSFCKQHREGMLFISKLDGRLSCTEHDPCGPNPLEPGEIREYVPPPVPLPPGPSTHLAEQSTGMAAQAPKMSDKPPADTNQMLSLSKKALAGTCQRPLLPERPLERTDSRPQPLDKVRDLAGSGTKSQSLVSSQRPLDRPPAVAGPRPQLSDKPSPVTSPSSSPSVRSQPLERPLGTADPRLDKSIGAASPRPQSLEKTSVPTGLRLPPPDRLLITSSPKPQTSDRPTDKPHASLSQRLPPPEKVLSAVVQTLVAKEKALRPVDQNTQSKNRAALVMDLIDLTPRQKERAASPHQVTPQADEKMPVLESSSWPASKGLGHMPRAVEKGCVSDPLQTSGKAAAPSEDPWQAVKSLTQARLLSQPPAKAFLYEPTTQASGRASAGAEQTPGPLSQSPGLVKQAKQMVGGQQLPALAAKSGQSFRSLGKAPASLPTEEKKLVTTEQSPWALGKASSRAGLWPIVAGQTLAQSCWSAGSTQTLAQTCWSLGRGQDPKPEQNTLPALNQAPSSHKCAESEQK
UniProt O60264: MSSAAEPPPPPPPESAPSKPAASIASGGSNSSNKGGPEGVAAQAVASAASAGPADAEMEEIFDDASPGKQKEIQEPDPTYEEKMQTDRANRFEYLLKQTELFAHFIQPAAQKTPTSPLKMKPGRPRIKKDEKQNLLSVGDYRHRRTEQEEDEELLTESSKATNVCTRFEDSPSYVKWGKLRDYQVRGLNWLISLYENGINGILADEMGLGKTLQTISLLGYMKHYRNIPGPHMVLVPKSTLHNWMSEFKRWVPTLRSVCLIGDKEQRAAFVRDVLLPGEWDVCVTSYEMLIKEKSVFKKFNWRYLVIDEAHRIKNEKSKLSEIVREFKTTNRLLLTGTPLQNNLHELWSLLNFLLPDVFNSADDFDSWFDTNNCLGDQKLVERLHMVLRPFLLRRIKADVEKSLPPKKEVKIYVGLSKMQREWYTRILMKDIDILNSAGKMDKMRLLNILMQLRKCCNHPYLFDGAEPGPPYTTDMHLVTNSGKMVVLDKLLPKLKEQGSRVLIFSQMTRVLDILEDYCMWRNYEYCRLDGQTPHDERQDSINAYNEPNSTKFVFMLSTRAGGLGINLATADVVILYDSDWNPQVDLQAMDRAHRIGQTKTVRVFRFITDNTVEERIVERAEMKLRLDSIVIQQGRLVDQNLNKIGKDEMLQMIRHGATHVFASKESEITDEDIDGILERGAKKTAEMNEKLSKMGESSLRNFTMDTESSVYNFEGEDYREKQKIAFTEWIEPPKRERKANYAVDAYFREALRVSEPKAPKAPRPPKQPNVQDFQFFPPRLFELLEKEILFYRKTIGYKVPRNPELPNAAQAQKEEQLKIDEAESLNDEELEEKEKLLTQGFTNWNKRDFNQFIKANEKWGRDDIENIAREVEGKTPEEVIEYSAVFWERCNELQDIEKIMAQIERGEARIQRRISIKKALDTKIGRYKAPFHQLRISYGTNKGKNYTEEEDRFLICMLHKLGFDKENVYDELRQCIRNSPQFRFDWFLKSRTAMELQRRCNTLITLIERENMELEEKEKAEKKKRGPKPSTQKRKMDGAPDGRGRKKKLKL

SMARCA5 (from UniProt O60264 1-1052)
binding: binds
